# PubChem BioAssay AID1259405 – NCATS – 2018
# Assay: 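Knock-downs that lift recombinant protein yield in hamster ovary cells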 (primary screen)
# Cell system: Chinese hamster CHO-K1 ovary cells with stable secreted eGFP expression
# Knock-down reagent: single siRNA against mouse genes, 0.8 pmol siRNA per well (2 µl of 400 nM stock)
# Duration: 3 days
# Detection: 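Percent of the per-plate non-targeting control median for intracellular GFP per well by laser scanning cytometry and for cell viability by ATP luminescence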
# Direction: GFP, % of control: higher = more GFP per well, higher productivity; viability (ATP), % of control: higher = more viable cells (more ATP)
# Active means: 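Called active when intracellular GFP, relative to negative control, is at or above 120%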
# The whole screen tested about 50,000 reagents; shown is a part drawn at random. About 4,000 of all reagents (8%) count as active. 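Mouse siRNA library applied to hamster cells; one well for each siRNA.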 A number with no mark means an inactive call. The numbers tell different reagents against one gene apart.
gene knocked down,siRNA no.,"GFP, % of control","viability (ATP), % of control"
Fzd6,1,67.4,79.9
Fzd6,2,50.6,56.8
Drg2,1,138 (active),82.9
Drg2,2,98.9,92.2
Drg2,3,93.4,65.2
Timd6,1,92.8,32.1
Timd6,2,73.9,82.5
Timd6,3,69.3,65.1
Or2t46,1,73.2,54.6
Or2t46,2,62.8,58.2
Or2t46,3,54.8,82.4
Rps4l,1,89.7,65.2
Rps4l,2,95.3,54.9
Rps4l,3,51.5,74.9
Rbpj,1,127 (active),113
Rbpj,2,118,110
Cftr,1,104,94.1
Cftr,2,72.2,70.8
Cftr,3,53.2,77.2
Aamdc,1,57.5,84.4
Aamdc,2,57.3,56.8
Aamdc,3,82.5,94.7
Thnsl1,1,118,104
Thnsl1,2,60.5,112
Thnsl1,3,77.9,96.3
Dmp1,1,47.4,77.6
Dmp1,2,85.2,49.4
Dmp1,3,62.4,64.7
Ccdc148,1,61.1,17.5
Ccdc148,2,144 (active),90.8
Ccdc148,3,97.7,96
Fam187a,1,67.8,63.7
Fam187a,2,91.1,101
Fam187a,3,106,111
Xpnpep3,1,117,79
Xpnpep3,2,75.4,50.5
Xpnpep3,3,95.5,57.8
Ap3d1,1,9.21,7.64
Ap3d1,2,72.3,75.5
Ap3d1,3,76.8,48.7
Slc2a6,1,61.4,69
Slc2a6,2,61,81.6
Slc2a6,3,46.8,40
B3galt2,1,107,106
B3galt2,2,188 (active),46.7
B3galt2,3,111,111
Grina,1,74,64.4
Grina,2,38.1,61
Grina,3,77.6,50.6
Tlm,1,72.3,70.5
Tlm,2,85,104
Tlm,3,111,80.4
Npas4,1,76.7,33.7
Npas4,2,101,86.3
Npas4,3,53.2,42
Comtd1,1,91.4,100
Comtd1,2,137 (active),164
Comtd1,3,102,103
Arhgef28,1,62,69.6
Arhgef28,2,74.2,96.3
Arhgef28,3,22.1,51.6
Nell2,1,135 (active),70.9
Nell2,2,101,89
Clec2m,1,92,95.5
Clec2m,2,62.8,70.4
Clec2m,3,38.1,38.2
Slc4a1ap,1,46.3,75.7
Slc4a1ap,2,83.7,99.6
Prkar1b,1,98.7,94.6
Prkar1b,2,86.4,85.1
Ckap4,1,95.5,90.9
Ckap4,2,98.9,66.1
Ckap4,3,93.3,99.6
Rps9,1,127 (active),43.3
Rps9,2,114,60
Rps9,3,64.1,67.3
Ptpn1,1,98.9,68.5
Ptpn1,2,108,72.5
Ptpn1,3,74.6,72.5
Fastkd5,1,107,96
Fastkd5,2,39.8,32.6
Fastkd5,3,112,68
Dkk4,1,72,57.7
Dkk4,2,62.1,73
Dkk4,3,90.4,46.5
Dbt,1,45.1,37.5
Dbt,2,43.7,61.2
Dbt,3,104,81.2
Col28a1,1,106,100
Col28a1,2,93.1,84.3
Col28a1,3,64,73.5
Atg4d,1,83.3,56.6
Atg4d,2,107,109
Atg4d,3,137 (active),95.4
Meis1,1,55,68.1
Meis1,2,82.8,85.8
Meis1,3,53.7,79.1
Zfp397,1,52.9,46.7
Zfp397,2,66.6,73.3
Zfp397,3,47.3,84.6
Zfp513,1,55.1,77.7
Zfp513,2,80.6,97.5
Zfp513,3,83.4,91.5
Msrb1,1,81.8,82.5
Msrb1,2,77.7,49.8
Msrb1,3,85.1,83.5
Dnajb11,1,44.5,54.6
Dnajb11,2,85,69.1
Dnajb11,3,62.7,107

Ordered by “GFP, % of control” (low to high): some entries from above
gene knocked down,siRNA no.,"GFP, % of control","viability (ATP), % of control"
Zfp397,1,52.9,46.7
Meis1,3,53.7,79.1
Meis1,1,55,68.1
Zfp397,2,66.6,73.3
Meis1,2,82.8,85.8
Atg4d,2,107,109
Atg4d,3,137 (active),95.4
